We go through four sequences from paper PMC3691326.

The chains behind the UniProt entries cited, without tags or fusion partners. Where a name states a change or a piece, a line headed by the entry shows the natural chain unless it says otherwise.
UniProt Q9H668: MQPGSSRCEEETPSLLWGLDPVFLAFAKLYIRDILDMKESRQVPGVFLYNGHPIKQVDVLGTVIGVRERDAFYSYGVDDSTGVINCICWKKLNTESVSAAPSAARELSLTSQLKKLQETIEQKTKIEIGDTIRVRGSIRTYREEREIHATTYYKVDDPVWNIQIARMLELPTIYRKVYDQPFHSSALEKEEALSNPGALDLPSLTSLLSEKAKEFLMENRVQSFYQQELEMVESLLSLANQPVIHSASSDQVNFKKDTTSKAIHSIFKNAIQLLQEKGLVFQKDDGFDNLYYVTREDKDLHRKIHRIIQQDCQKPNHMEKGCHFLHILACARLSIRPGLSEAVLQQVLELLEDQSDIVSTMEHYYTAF
UniProt Q86WV5: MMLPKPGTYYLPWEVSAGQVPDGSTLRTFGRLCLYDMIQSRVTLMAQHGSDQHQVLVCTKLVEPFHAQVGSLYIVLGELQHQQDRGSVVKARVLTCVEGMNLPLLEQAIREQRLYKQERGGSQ

One data set deals with hStn1 (Homo sapiens) (UniProt Q9H668). The data set can be described thus: fluorescence polarization. The following applies: FP: 100 mM NaCl, 5 mM MgCl2, 1 mM DTT, 5% glycerol, 1 mg/mL BSA, 2.5 nM 6-FAM DNA, room temperature, pH not stated, recombinant protein, residues 1-368, single-stranded DNA. A general note: In fluorescence polarisation assays a small probe gives low polarisation when free and higher when bound to something large.

A further data set deals with hTen1 (Homo sapiens) (UniProt Q86WV5). As to the kind of experiment: fluorescence polarization. The following applies: slight shift only at >=15 uM protein, FP: 100 mM NaCl, 5 mM MgCl2, 1 mM DTT, 5% glycerol, 1 mg/mL BSA, 2.5 nM 6-FAM DNA, room temperature, pH not stated, recombinant protein, residues 1-123, single-stranded DNA.

The comparison behind a weaker result is the experiment's own reference, which may not be listed here. For some of these results: The exact form of at least one protein or probe is not confirmed.

With TTAGGGTT [tel8], the binding result with hStn1 (Homo sapiens) (too weak to determine Kd) was “binds more weakly”.
For the sequence TTAGGGTTAGGG [tel12], the binding result with hTen1 (Homo sapiens) (best visible probe) is reported as “binds more weakly”.
Regarding TTAGGGTTAGGGTTAGGG [tel18], the binding result in the data set with hTen1 (Homo sapiens) is given as “binds more weakly”.
What is called Kd is the concentration at which binding is half-saturated. Turning to TTAGGGTTAGGGTTAGGGTTAGGGTTAGGG [tel30], the Kd with hStn1 (Homo sapiens) turned out to be 0.2 µM.
